Experimental data reported in patent publication US20230210814A1, “METHOD AND PHARMACEUTICAL COMPOSITION FOR INHIBITING CANCER METASTASIS” (RAMOT AT TEL AVIV UNIVERSITY LTD., priority 2020, published 2023).
For at least one compound, name, drawing or mass did not settle the structure.

System: primary astrocytes
Assay: Activation of primary astrocytes by melanoma conditioned media (qPCR of pan reactive astrocyte gene signature)
Assay type: cell-based, mice
Settings: primary astrocytes cultured with RMS or sBT CM for 24 h

SMILES: CCC(C)(C)C(=O)O[C@H]1C[C@@H](C)C=C2C=C[C@H](C)[C@H](CC[C@@H]3C[C@@H](O)CC(=O)O3)[C@H]21 [simvastatin]
- upregulation of gliosis-related signature genes (pan reactive astrocyte gene signature: LCN2, Cp, Aspg, Steap4, S1pr3, Osmr) by melanoma CM: attenuated
